Data source: PubChem BioAssay AID1259254 (NCATS, 2017)

- Test: 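Genome-wide screen for genes that prevent DNA re-replication in cancer cells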 (primary screen)
- Cells: human HCT116 colorectal cancer cells
- Reagent: single siRNA against human genes
- Time to read-out: 3 days
- Read-out: 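Nuclei stained with Hoechst and imaged; cell-cycle phase assigned by DNA content; G2 share scaled per plate, non-targeting siRNA 0%, GMNN siRNA 100%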
- Reading the numbers: G2 robust z-score and G2 cells, % of GMNN control: higher = more G2 cells, more excess DNA replication
- Active means: 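An siRNA counts as active if its G2 robust z-score lies at least 5 MADs above the screen median; here such calls match roughly 38% of GMNN control or more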
In all, the deposit lists about 59,000 reagents; below is an unselected part. About 1,550 of all reagents (2.6%) were called active. 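G2 share is only a proxy for re-replication; each gene was hit by three separate siRNAs, and active genes were retested.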 Entries without a mark were called inactive. The numbers tell different reagents against one gene apart. Further read-outs or replicates are left out here. No sequences are given here. The record does not give: the amount of reagent.

What is on record for KCTD20 #1?
G2 robust z-score: -0.467; G2 cells, % of GMNN control: -0.316

For KCTD20 #2, what does the deposit list?
G2 robust z-score: -0.718; G2 cells, % of GMNN control: -2.09

Which result is listed for KCTD20 #3?
G2 robust z-score: 0.0217; G2 cells, % of GMNN control: 3.12

With YARS2 #1, what does the deposit list?
G2 robust z-score: -0.53; G2 cells, % of GMNN control: -0.758

For YARS2 #2, what does the deposit list?
G2 robust z-score: -1; G2 cells, % of GMNN control: -4.1

How did the screen score YARS2 #3?
G2 robust z-score: -0.66; G2 cells, % of GMNN control: -1.67

How did the screen score SDC3 #1?
G2 robust z-score: -0.44; G2 cells, % of GMNN control: -0.127

For SDC3 #2, what was measured?
G2 robust z-score: 0.727; G2 cells, % of GMNN control: 8.08

How did the screen score SDC3 #3?
G2 robust z-score: 0.377; G2 cells, % of GMNN control: 5.62

For POLI #1, how do the results read?
G2 robust z-score: 1.2; G2 cells, % of GMNN control: 11.4

Which result is listed for POLI #2?
G2 robust z-score: -0.717; G2 cells, % of GMNN control: -2.08

What is on record for POLI #3?
G2 robust z-score: -0.341; G2 cells, % of GMNN control: 0.566

How did the screen score WASHC4 #1?
G2 robust z-score: -0.627; G2 cells, % of GMNN control: -1.45

How did the screen score WASHC4 #2?
G2 robust z-score: 0.426; G2 cells, % of GMNN control: 5.97

Which result is listed for WASHC4 #3?
G2 robust z-score: -0.738; G2 cells, % of GMNN control: -2.22

For TAF7L #1, what does the deposit list?
G2 robust z-score: 0.0641; G2 cells, % of GMNN control: 3.42

What is on record for TAF7L #2?
G2 robust z-score: 4.18; G2 cells, % of GMNN control: 32.4

For TAF7L #3, how do the results read?
G2 robust z-score: -0.94; G2 cells, % of GMNN control: -3.65

For HECTD3 #1, how do the results read?
G2 robust z-score: -1.5; G2 cells, % of GMNN control: -7.6

For HECTD3 #2, how do the results read?
G2 robust z-score: -0.184; G2 cells, % of GMNN control: 1.68

What did the screen give for HECTD3 #3?
G2 robust z-score: 4.2; G2 cells, % of GMNN control: 32.5

What is on record for CCL5 #1?
G2 robust z-score: -1.04; G2 cells, % of GMNN control: -4.37

What is on record for CCL5 #2?
G2 robust z-score: -0.562; G2 cells, % of GMNN control: -0.988

How did the screen score CCL5 #3?
G2 robust z-score: -1.49; G2 cells, % of GMNN control: -7.54

Quoted from the entries so far, 2 entries:
KCTD20 #2 | G2 robust z-score: -0.718; G2 cells, % of GMNN control: -2.09
KCTD20 #3 | G2 robust z-score: 0.0217; G2 cells, % of GMNN control: 3.12
